Among all 310,000 compounds or so, about 17,000 (5.5%) were called active. The shares of active, inactive and inconclusive entries below differ from those in the screen. Calls follow the shape of the dose curve; as a rule, active = well fitted inhibition curve with a large enough effect; inconclusive = small, poorly fitted or top-dose-only effect, or effect the other way; inactive = no such curve, though single readings can be large or run the other way. Where the call is inconclusive, the potency comes from a doubtful curve fit.
Biological target: Nuclear receptor ROR-gamma (Mus musculus) (UniProt P51450)
Experiment: qHTS for inhibitors of ROR gamma transcriptional activity; also: nearly all actives have a fitted effect of over 60% in size
Conditions: Drosophila S2 Gal4-RORgamma UAS-luciferase reporter, 20 h; series mostly up to 53.6 µM
Method in brief: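 ROR gamma transcriptional activity was tracked as Gal4-UAS luciferase output in stably transfected Drosophila Schneider cells, with compound added 1 hr before 700 uM copper sulfate induction and a 20 hr ambient-temperature incubation.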
Potency is read from the fitted curve at half-maximal effect.

Amino acid sequences for entries named in this document (tags omitted). A change or cut given only in a name is not applied to a line headed by its entry.
UniProt P51450: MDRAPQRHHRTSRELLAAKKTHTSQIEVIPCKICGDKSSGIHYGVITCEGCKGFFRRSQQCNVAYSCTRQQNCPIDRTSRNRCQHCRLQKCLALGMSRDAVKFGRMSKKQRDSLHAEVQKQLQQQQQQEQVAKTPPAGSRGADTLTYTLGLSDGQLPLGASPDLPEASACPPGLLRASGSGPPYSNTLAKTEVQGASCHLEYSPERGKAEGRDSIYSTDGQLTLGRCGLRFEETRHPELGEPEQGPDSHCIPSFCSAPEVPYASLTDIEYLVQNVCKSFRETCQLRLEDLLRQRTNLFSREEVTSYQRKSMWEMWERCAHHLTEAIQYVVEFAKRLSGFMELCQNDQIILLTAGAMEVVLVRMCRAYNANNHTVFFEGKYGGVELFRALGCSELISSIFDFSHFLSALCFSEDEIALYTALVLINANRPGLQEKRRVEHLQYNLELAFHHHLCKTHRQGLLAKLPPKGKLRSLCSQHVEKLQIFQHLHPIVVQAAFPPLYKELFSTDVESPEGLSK

Potency, active:
O=C(NNc1nc(-c2ccccc2)cs1)c1ccco1 3.55 µM
C=C1C(=O)C23C(O)C1CCC2[C@]12COC3(O)C(O)C1C(C)(C)CC[C@H]2O (stereo partly drawn) 0.708 µM
C/C(=N\NC(=O)c1cccc(S(=O)(=O)N2CCCC2)c1)c1cccs1 12.6 µM
CC1(C)S/C(=N/N=C/c2ccco2)NC1=O 12.6 µM
CC(C)(C)c1ccc(C(=O)Nc2nnc(C3=COCCO3)o2)cc1 0.178 µM
Cc1cccc(-c2n[nH]c(=S)n2/N=C/c2ccco2)c1 8.91 µM
Clc1nnc(N/N=C/c2ccccc2)c2ccccc12 10 µM
CNC(=O)c1[nH]cnc1C(=O)N[C@@H](CC(C)C)C(=O)OCc1ccccc1 10 µM
COc1ccc(Cn2c(=S)[nH]c3cc(OC)c(OC)cc3c2=O)cc1 3.55 µM
Cc1ccsc1/C=N/NC(=O)c1nnn(-c2nonc2N)c1-c1ccc2c(c1)OCO2 10 µM
Cc1cccc(Nc2c3c(nc4ccccc24)CCC3)c1 7.08 µM

Potency, inactive:
CN(C)CCN1C(=O)C(=O)/C(=C(/O)c2ccc(S(=O)(=O)N3CCOCC3)cc2)C1c1ccc(F)cc1 (stereo not drawn)
COc1ccccc1N=Cc1c(C)[nH]n(-c2ccc(C)cc2C)c1=O
Cc1cc(=O)oc2c(CN3CCCC3)c(O)ccc12
COc1ccc(OC)c(/C=C2\SC(=S)N(C(C(=O)O)c3ccccc3)C2=O)c1 (stereo not drawn)
COc1ccc(CN(Cc2ccc(C(=O)O)cc2)C(=S)Nc2ccccc2Cl)cc1OC
Cn1nc(C(F)(F)F)c(C(=O)Nc2ccc(F)cc2F)c1Sc1cccc(Cl)c1
Cc1cc(C#N)c2ccccc2n1
CCCCC1=CC2=C(c3ccco3)C(=O)C(C)(OC(=O)c3ccc(OC)cc3)C(=O)C2=CN1c1ccccc1 (stereo not drawn)
COC(=O)N1CCC2(CC1)CCN(c1ccncc1)CC2
COC(=O)C1=C(C)N(CC2CC2)C(=NCc2cccc(Cl)c2)N[C@H]1c1ccccc1
CCCCCCCN1C(Nc2ccccc2)=NC[C@@H]1Cc1ccccc1
Cc1ccc(/C=C2\SC(=S)N(CCCC(=O)Nc3ccccc3C(=O)O)C2=O)cc1
COc1ccc(C)c2sc(=NC(=O)c3ccc(C(C)=O)cc3)n(C)c12
CCCN1CCC(=O)N(C(CSc2ccc(OC)cc2)c2ccccc2)CC1 (stereo not drawn)
Oc1ccc(CN2CCN(Cc3ccccc3)CC2)c2cccnc12
Cc1ccc(S(=O)(=O)c2nc(-c3ccco3)oc2SC(C)C)cc1
COc1cc(CNn2nnnc2N)ccc1OCC(=O)NC(C)(C)C
N[C@H](C(=O)O)c1nn[nH]n1
CCNc1nc(C)nc2c1oc1ccccc12
CCc1ccc(N=CC23c4ccccc4C(c4ccccc42)C2C(=O)N(c4ccc(OC)cc4)C(=O)C23)cc1 (stereo not drawn)
COC(=O)C1=C[C@@H](C(=O)OC)C2C3=C(C(=O)[C@@]2(C)NC(=O)c2ccccc2)[C@H](c2ccccc2)[C@@H]2C(=O)N(c4ccccc4)C(=O)[C@@H]2[C@@H]3C1 (stereo partly drawn)
C=CCC(CC=C)(NC(=O)c1ccccc1)c1ccccc1
O=C(COC(=O)c1ccncc1)c1ccc(Cl)c(Cl)c1
CC(=O)N1N=C(c2cccs2)CC1c1cccc([N+](=O)[O-])c1 (stereo not drawn)
CN(C)Cc1ccccc1-c1cncnc1Nc1ccncc1

Potency, inconclusive:
CSc1nnc(Cc2cc(=O)[nH]c(=O)[nH]2)n1-c1cc(C)ccc1C 10 µM [inhibitor, partial curve, poor fit]
O=C(Nc1c(F)cc(F)cc1Br)c1cc(S(=O)(=O)N2CCN(c3ccccn3)CC2)ccc1F 15.8 µM [activator, single point]
CC(=O)Nc1ccc(S(=O)(=O)Nc2ccc(F)c([N+](=O)[O-])c2)cc1 10 µM [activator, partial curve]
CCOC(=O)/N=C(/NC(=O)Nc1ccc(C(=O)OCC)cc1)OC 0.224 µM [activator, single point]
CN(C1CCS(=O)(=O)C1)S(=O)(=O)c1ccc(N2CCCC2=O)cc1 (stereo not drawn) 6.31 µM [inhibitor, single point]
O=C(Cc1ccccc1)N/N=C/c1ccc([N+](=O)[O-])s1 35.5 µM [activator, single point]
Cc1ccc(Cl)cc1Nc1nc(-c2sc(NC(=O)c3cccc(Cl)c3)nc2C)cs1 35.5 µM [inhibitor, single point]
FC(F)(F)c1ccccc1NC(=S)N1CCN(Cc2ccc3c(c2)OCO3)CC1 15.8 µM [inhibitor, single point]
Oc1ccc(/C=N/n2c(-c3ccccc3)n[nH]c2=S)cc1Br 22.4 µM [inhibitor, single point]
O=C(/C=C/c1cccc([N+](=O)[O-])c1)Nn1c(-c2ccccc2F)nc2ccccc2c1=O 7.94 µM [activator, single point]
O=C(CN1CCN(c2ncccn2)CC1)N1CCCc2c1c(=O)oc1ccc(O)cc21 35.5 µM [activator, single point]
CCCc1ccc(-c2ccc(C(=O)O)cc2)nc1 3.98 µM [inhibitor, partial curve, poor fit]
CCOc1cnn(Cc2ccccc2)c(=O)c1SCc1ccccc1 0.891 µM [inhibitor, partial curve, poor fit]
COc1cccc2c(=O)n(CC(=O)N3CCCCC3)ccc12 0.126 µM [activator, full curve, poor fit]
NC(=O)c1cc(Cl)ccc1OCC(=O)N1CCCc2ccccc21 35.5 µM [activator, single point]
COc1ccc(Nc2nc(N)c([N+](=O)[O-])c(NC3CCCCC3)n2)cc1 2 µM [activator, partial curve]
O=C1NC(Cc2c[nH]c3ccccc23)C(=O)N1CCOc1ccc(F)cc1 (stereo not drawn) 11.2 µM [activator, single point]
COc1ccc(OC)c(NC(=O)c2cc3c(=O)n4ccccc4nc3n2C)c1 35.5 µM [activator, single point]
CC(=O)c1ccc(OC(=O)C(CCS(C)(=O)=O)N2C(=O)c3ccccc3C2=O)cc1 (stereo not drawn) 0.0447 µM [inhibitor, full curve, poor fit]
CCOC(=O)c1ccc(Nc2ncnc3c2cnn3C)cc1 14.1 µM [activator, single point]
COc1ccc(CNC(=O)C(c2ccco2)N(C(=O)CNS(=O)(=O)c2ccccc2)c2ccccc2C)cc1 (stereo not drawn) 15.8 µM [activator, partial curve, poor fit]
CCCCCN1C(=O)Cn2c(nc3ccccc3c2=O)C1C (stereo not drawn) 25.1 µM [inhibitor, single point]
CCc1nn(CCCC(=O)NCc2ccccc2C)c(=O)c2cc3occc3n12 1.58 µM [inhibitor, partial curve, poor fit]
CN1CC(=O)N/C1=N/C(=O)Nc1cccc(Cl)c1 20 µM [inhibitor, single point]
CC1(C)Cc2c(c(-c3ccccc3)[nH]c(=O)c2C#N)CS1 11.2 µM [inhibitor, partial curve]
CCC1CCCCN1C(=S)Nc1ccc(SC(F)F)cc1 (stereo not drawn) 15.8 µM [inhibitor, single point]
NC(=O)N/N=C\c1ccc([N+](=O)[O-])o1 12.6 µM [inhibitor, partial curve]
O=C(c1ccc(-c2ccc([N+](=O)[O-])cc2)o1)N1CCCCC1 35.5 µM [inhibitor, single point]
O=C(CNc1ccc2c(c1)OCO2)N/N=C\c1cn(Cc2ccc(F)cc2)c2ccccc12 14.1 µM [inhibitor, single point]
CC(C)OC(=O)CSc1nnc(-c2ccc(C(C)(C)C)cc2)n1N 35.5 µM [inhibitor, single point]
FC(F)(F)c1cc(Oc2ccccc2)nc(-c2ccccn2)n1 8.91 µM [inhibitor, partial curve, poor fit]
CCOc1ccc(OCC)c(NC(=O)c2nnn(CC(=O)Nc3cc(C)cc(C)c3)c2N)c1 35.5 µM [inhibitor, single point]
O=C(CC1CCCCC1)OCn1nnc2ccccc2c1=O 2.82 µM [inhibitor, single point]
O=C(c1ccc(S(=O)(=O)N2CCOCC2)cc1)N1CCN(c2ccc(F)cc2)CC1 1.26 µM [inhibitor, single point]
Cc1cc(=O)[nH]c(SCc2nc3ccccc3n2Cc2ccccc2)n1 22.4 µM [inhibitor, single point]
COc1ccc(NC(=O)C2CC(=O)N(Cc3ccc(C)cc3)C2)cc1S(=O)(=O)N1CCCCC1 (stereo not drawn) 15.8 µM [activator, partial curve]
Cc1cc(C)n(CCNC(=O)c2cc(COc3ccc4ncccc4c3)on2)n1 35.5 µM [activator, single point]

A portion from the list above, for reference:
Potency, inconclusive:
O=C(CC1CCCCC1)OCn1nnc2ccccc2c1=O 2.82 µM [inhibitor, single point]
O=C(c1ccc(S(=O)(=O)N2CCOCC2)cc1)N1CCN(c2ccc(F)cc2)CC1 1.26 µM [inhibitor, single point]
Cc1cc(=O)[nH]c(SCc2nc3ccccc3n2Cc2ccccc2)n1 22.4 µM [inhibitor, single point]

— PubChem BioAssay AID2551 (National Center for Advancing Translational Sciences (NCATS), 2010)
